Data source: PubChem BioAssay AID1259254 (NCATS, 2017)

Assay: 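Genome-wide screen for genes that prevent DNA re-replication in cancer cells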 (primary screen)
System: human HCT116 colorectal cancer cells
Reagents: single siRNA against human genes
Time to read-out: 3 days
Read-out: 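Nuclei stained with Hoechst and imaged; cell-cycle phase assigned by DNA content; G2 share scaled per plate, non-targeting siRNA 0%, GMNN siRNA 100%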
Direction: G2 robust z-score: higher = more G2 cells, more excess DNA replication
Call rule: 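An siRNA counts as active if its G2 robust z-score lies at least 5 MADs above the screen median; here such calls match roughly 38% of GMNN control or more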
In all, the deposit lists about 59,000 reagents; below is an unselected part. About 1,550 of them (2.6%) count as active. 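G2 share is only a proxy for re-replication; each gene was hit by three separate siRNAs, and active genes were retested.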 A number with no mark means an inactive call. The numbers tell different reagents against one gene apart. Further read-outs or replicates are left out here. Not given: the amount of reagent.

G2 robust z-score, by gene symbol and reagent
RAB15: #1 5.25 (active); #2 1.41; #3 0.327
EMX1: #1 1.23; #2 0.657; #3 -0.94
ERI1: #1 0.444; #2 0.229; #3 -1.2
HLF: #1 7.07 (active); #2 0.375; #3 -0.521
TP53RK: #1 -0.767; #2 2.57; #3 -0.269
DNAAF3: #1 -0.521; #2 0.379; #3 -0.91
RGPD4-DT: #1 0.0477; #2 -0.267; #3 0.854
LHX2: #1 -0.108; #2 -1.02; #3 -0.684
SMC5: #1 -0.76; #2 0.486; #3 -1.03
MIA: #1 4.03; #2 -0.379; #3 -0.488
GET4: #1 0.736; #2 2.95; #3 0.201
TAF4B: #1 -1.3; #2 0.178; #3 2.17
ALAD: #1 3.11; #2 -0.502; #3 2.74
STX17: #1 0.05; #2 0.64; #3 3.92
WBP2NL: #1 -0.0692; #2 0.215; #3 -0.499
KPRP: #1 0.217; #2 -0.877; #3 0.611
